PubChem BioAssay AID1508597 | Cure First | 2020
Aim: 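Genes whose silencing sensitises or protects ovarian cancer cells against rucaparib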 (primary screen). System: human ovarian carcinoma lines grown from tumours: OCI-P5x (papillary serous) and OCI-C5x (clear cell). Reagents: siRNA pool against human genes, 1.25 pmol siRNA per well. Time to read-out: 72 h or 96 h, depending on the cell culture. Treatment: rucaparib 20 µM (about IC30) or vehicle, present until read-out. Measurement: 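ATP luminescence measured at 72 or 96 h according to the culture, then normalised and expressed as percent viability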. Scale: viability, normalised: higher = more viable cells remaining. Call rule: 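a well counts as a hit if its normalised viability is under 80 percent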. Calls: active = viability under 80%; inactive = viability 80% or more.
In all, the deposit lists about 2,100 reagents; below is a random part of them. 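Calls flag viability under 80% in either arm, not effects specific to rucaparib; the reference for percent is not stated.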 Not given: the 100% reference.

H4C2 (GeneID 8366), rucaparib or vehicle Rucaparib, cell line OCI-C5x (clear cell), technical replicate 1 showed viability, normalised (%) = 61; active.
H4C2 (GeneID 8366), rucaparib or vehicle Rucaparib, cell line OCI-C5x (clear cell), technical replicate 2 gave viability, normalised (%) = 31; active.
H4C2 (GeneID 8366), rucaparib or vehicle Rucaparib, cell line OCI-C5x (clear cell), technical replicate 3 gave viability, normalised (%) = 48.9; active.
H4C2 (GeneID 8366), rucaparib or vehicle Rucaparib, cell line OCI-P5x (serous), technical replicate 1 showed viability, normalised (%) = 61; active.
With H4C2 (GeneID 8366), rucaparib or vehicle Rucaparib, cell line OCI-P5x (serous), technical replicate 2 the deposit lists viability, normalised (%) = 72.8; active.
H4C2 (GeneID 8366), rucaparib or vehicle Rucaparib, cell line OCI-P5x (serous), technical replicate 3 gave viability, normalised (%) = 56.9; active.
H4C2 (GeneID 8366), rucaparib or vehicle Vehicle, cell line OCI-C5x (clear cell), technical replicate 1 scored viability, normalised (%) = 74.1; active.
H4C2 (GeneID 8366), rucaparib or vehicle Vehicle, cell line OCI-C5x (clear cell), technical replicate 2 showed viability, normalised (%) = 57.2; active.
For H4C2 (GeneID 8366), rucaparib or vehicle Vehicle, cell line OCI-C5x (clear cell), technical replicate 3, the entry reads viability, normalised (%) = 51.1; active.
With H4C2 (GeneID 8366), rucaparib or vehicle Vehicle, cell line OCI-P5x (serous), technical replicate 1, the entry reads viability, normalised (%) = 88.1; inactive.
H4C2 (GeneID 8366), rucaparib or vehicle Vehicle, cell line OCI-P5x (serous), technical replicate 2 showed viability, normalised (%) = 57.2; active.
H4C2 (GeneID 8366), rucaparib or vehicle Vehicle, cell line OCI-P5x (serous), technical replicate 3 scored viability, normalised (%) = 116; inactive.

In a second layout: entries from further up.
H4C2 (GeneID 8366), rucaparib or vehicle Rucaparib, cell line OCI-P5x (serous), technical replicate 1
- viability, normalised (%): 61
- activity call: active

H4C2 (GeneID 8366), rucaparib or vehicle Rucaparib, cell line OCI-P5x (serous), technical replicate 2
- viability, normalised (%): 72.8
- activity call: active

H4C2 (GeneID 8366), rucaparib or vehicle Rucaparib, cell line OCI-P5x (serous), technical replicate 3
- viability, normalised (%): 56.9
- activity call: active

H4C2 (GeneID 8366), rucaparib or vehicle Vehicle, cell line OCI-C5x (clear cell), technical replicate 1
- viability, normalised (%): 74.1
- activity call: active

H4C2 (GeneID 8366), rucaparib or vehicle Vehicle, cell line OCI-C5x (clear cell), technical replicate 2
- viability, normalised (%): 57.2
- activity call: active

Further results follow.
TSTD1 (GeneID 100131187), rucaparib or vehicle Rucaparib, cell line OCI-C5x (clear cell), technical replicate 1 scored viability, normalised (%) = 70; active.
TSTD1 (GeneID 100131187), rucaparib or vehicle Rucaparib, cell line OCI-C5x (clear cell), technical replicate 2 gave viability, normalised (%) = 48.6; active.
TSTD1 (GeneID 100131187), rucaparib or vehicle Rucaparib, cell line OCI-C5x (clear cell), technical replicate 3 scored viability, normalised (%) = 50.4; active.
TSTD1 (GeneID 100131187), rucaparib or vehicle Rucaparib, cell line OCI-P5x (serous), technical replicate 1 gave viability, normalised (%) = 62.8; active.
TSTD1 (GeneID 100131187), rucaparib or vehicle Rucaparib, cell line OCI-P5x (serous), technical replicate 2 showed viability, normalised (%) = 56.7; active.
TSTD1 (GeneID 100131187), rucaparib or vehicle Rucaparib, cell line OCI-P5x (serous), technical replicate 3 gave viability, normalised (%) = 67.3; active.
For TSTD1 (GeneID 100131187), rucaparib or vehicle Vehicle, cell line OCI-C5x (clear cell), technical replicate 1, the values are viability, normalised (%) = 53.2; active.
TSTD1 (GeneID 100131187), rucaparib or vehicle Vehicle, cell line OCI-C5x (clear cell), technical replicate 2 gave viability, normalised (%) = 51.8; active.
TSTD1 (GeneID 100131187), rucaparib or vehicle Vehicle, cell line OCI-C5x (clear cell), technical replicate 3 gave viability, normalised (%) = 67.5; active.
TSTD1 (GeneID 100131187), rucaparib or vehicle Vehicle, cell line OCI-P5x (serous), technical replicate 1 gave viability, normalised (%) = 55.1; active.
With TSTD1 (GeneID 100131187), rucaparib or vehicle Vehicle, cell line OCI-P5x (serous), technical replicate 2 the deposit lists viability, normalised (%) = 61.5; active.
TSTD1 (GeneID 100131187), rucaparib or vehicle Vehicle, cell line OCI-P5x (serous), technical replicate 3 showed viability, normalised (%) = 46.6; active.
SMUG1 (GeneID 23583), rucaparib or vehicle Rucaparib, cell line OCI-C5x (clear cell), technical replicate 1 scored viability, normalised (%) = 55.7; active.
For SMUG1 (GeneID 23583), rucaparib or vehicle Rucaparib, cell line OCI-C5x (clear cell), technical replicate 2, the entry reads viability, normalised (%) = 56.7; active.
SMUG1 (GeneID 23583), rucaparib or vehicle Rucaparib, cell line OCI-C5x (clear cell), technical replicate 3 showed viability, normalised (%) = 37.7; active.
With SMUG1 (GeneID 23583), rucaparib or vehicle Rucaparib, cell line OCI-P5x (serous), technical replicate 1, the entry reads viability, normalised (%) = 86.1; inactive.
SMUG1 (GeneID 23583), rucaparib or vehicle Rucaparib, cell line OCI-P5x (serous), technical replicate 2 showed viability, normalised (%) = 84.2; inactive.
SMUG1 (GeneID 23583), rucaparib or vehicle Rucaparib, cell line OCI-P5x (serous), technical replicate 3 gave viability, normalised (%) = 97.2; inactive.
SMUG1 (GeneID 23583), rucaparib or vehicle Vehicle, cell line OCI-C5x (clear cell), technical replicate 1 gave viability, normalised (%) = 46.4; active.
SMUG1 (GeneID 23583), rucaparib or vehicle Vehicle, cell line OCI-C5x (clear cell), technical replicate 2 scored viability, normalised (%) = 46; active.
SMUG1 (GeneID 23583), rucaparib or vehicle Vehicle, cell line OCI-C5x (clear cell), technical replicate 3 showed viability, normalised (%) = 40.6; active.
With SMUG1 (GeneID 23583), rucaparib or vehicle Vehicle, cell line OCI-P5x (serous), technical replicate 1, the values are viability, normalised (%) = 67.4; active.
SMUG1 (GeneID 23583), rucaparib or vehicle Vehicle, cell line OCI-P5x (serous), technical replicate 2 scored viability, normalised (%) = 77.6; active.
SMUG1 (GeneID 23583), rucaparib or vehicle Vehicle, cell line OCI-P5x (serous), technical replicate 3 showed viability, normalised (%) = 78; active.
